Measurements taken from PubChem BioAssay AID540276 (National Center for Advancing Translational Sciences (NCATS), 2011).
Hit rate of the full screen: of about 300,000 compounds, about 5,400 (1.8%) were called active. This list was built around the results that the source calls inconclusive (neither active nor inactive); the mix of calls is not that of the screen. The call rests on the fitted dose curve; tested in HEK293 cells. Where the call is inconclusive, the potency comes from a doubtful curve fit.

Experiment: qHTS for inhibitors of binding or entry into cells for Marburg Virus
Settings: Marburg virus pseudotyped entry inhibition, cell reporter; series mostly up to 37.8 µM
Potency means the concentration at half of the fitted maximal effect.

SMILES	Potency
COc1cccc(CN(C)C(=O)c2cccc(OCc3ccccc3)c2)c1	inconclusive: 11.2 µM [inhibitor, partial curve, poor fit]
CC(=O)Nc1ccc(OCC(O)CN2CCN(c3ccc(C)c(Cl)c3)CC2)cc1 (configuration not stated)	inconclusive: 23.1 µM [inhibitor, partial curve, poor fit]
COc1cccc(NC(=O)C(=O)NCCCn2ccnc2)c1	inactive
Cc1ccc(N2CC(C(=O)Nc3ccc(N(C)C)cc3)CC2=O)cc1Cl (configuration not stated)	inactive
C=C(C)CSc1nc(-c2ccccc2)cc(-c2ccc(OC)cc2)c1C#N	inactive
CC(=O)NCCc1nc2cc(NC(=O)COc3ccc(C)cc3)ccc2n1C	inconclusive: 3.16 µM [inhibitor, single point]
Fc1ccc(CNCc2ccccc2Cl)cc1	inactive
CCOC(=O)C1CCN(C(=O)CNC(=O)c2nn(-c3ccc(OC)c(OC)c3)c(=O)c3ccccc23)CC1	inconclusive: 35.5 µM [activator, single point]
COc1ccc(-n2c(C)cc(-c3cn4cccc(C)c4n3)c2C)cc1	inconclusive: 29.1 µM [inhibitor, single point]
CC(OC(=O)CNC(=O)c1ccccc1F)C(=O)Nc1nc(-c2ccccc2)cs1 (configuration not stated)	inconclusive: 25.9 µM [activator, single point]
COc1ccccc1OCC(=O)Nc1oc(-c2ccccc2)c(-c2ccccc2)c1C#N	inactive
O=C(/C=C/c1ccco1)NCCCN1CCOCC1	inconclusive: 3.55 µM [activator, single point]
Cc1csc(NC(=O)c2ccccc2O)n1	inconclusive: 35.5 µM [inhibitor, single point]
O=C(NNS(=O)(=O)c1ccc(Cl)cc1)c1cc(-c2ccccc2)nc2ccccc12	inactive
O=C1CCCC2=C1C(c1ccc3c(c1)OCO3)c1c([nH]n(-c3ccccc3)c1=O)N2 (configuration not stated)	inconclusive: 6.51 µM [activator, partial curve, poor fit]
CC(C)c1ccc(OCC(=O)N(Cc2cccs2)C2CCS(=O)(=O)C2)cc1 (configuration not stated)	inconclusive: 12.6 µM [activator, single point]
O=C(O)c1ccccc1C(=O)Nc1cc(C(F)(F)F)ccc1N1CCCC1	inconclusive: 22.4 µM [inhibitor, partial curve, poor fit]
CCN1CCN(c2ccc(S(=O)(=O)N3CCCCC3)cc2NC(=O)/C=C/c2ccc([N+](=O)[O-])cc2)CC1	inconclusive: 31.6 µM [inhibitor, single point]
Cc1cc2ccccc2n1CCNC(=O)c1ccc(Br)cc1	inactive
CN(c1ccc(C(=O)Nc2cccc(O)c2)cc1)S(=O)(=O)c1ccccc1	inconclusive: 17.8 µM [activator, partial curve, poor fit]
Cc1nnc(SCC(=O)NC(=O)Nc2ccc3c(c2)OCCO3)s1	inactive
COCCNC(=S)NC1CC2CCCC(C1)N2Cc1cccs1 (configuration not stated)	inconclusive: 25.9 µM [inhibitor, partial curve, poor fit]
COc1cccc(CN2CC(C(=O)NCCCc3ccncc3)CCC2=O)c1 (configuration not stated)	inconclusive: 12.6 µM [activator, partial curve, poor fit]

SMILES	Potency
COC(=O)Nc1nc2ccccc2[nH]1	inactive
CC(C)c1ccc(NC(=S)NC2CCCCCC2)cc1	inconclusive: 25.1 µM [inhibitor, single point]
CCOC(=O)N1CCN(S(=O)(=O)c2cccc3ccc(C)nc23)CC1	inconclusive: 6.51 µM [activator, single point]
N#Cc1cc2c(nc1S(=O)(=O)Cc1ccccc1)CCCC2	inactive
Cc1cccc(C2CC(=O)Nc3cc4c(cc32)OCO4)c1 (configuration not stated)	inconclusive: 8.91 µM [inhibitor, partial curve, poor fit]
COc1ccccc1NC(=O)Cn1nnc(-c2ccccc2NC(=O)c2cc3ccccc3oc2=O)n1	inconclusive: 29.1 µM [activator, single point]
CCc1cc2c(SCC(=O)Nc3ccc(Cl)cn3)ncnc2s1	inconclusive: 6.31 µM [activator, single point]
Cc1nnc(N2CCOCC2)c2nn(-c3ccccc3)c(C)c12	inactive
O=[N+]([O-])c1ccc(O)c(/C=N/NC(=S)Nc2ccc(Cl)cc2Cl)c1	inconclusive: 5.62 µM [inhibitor, single point]
CCOC(=O)CC1C(=O)NCCN1C1CCCC1 (configuration not stated)	inactive
CC(C)OC(=O)c1ccc(S(N)(=O)=O)o1	inconclusive: 20 µM [activator, single point]
CC(=O)COC(=O)c1ccc2noc(-c3ccccc3)c2c1	inconclusive: 7.94 µM [activator, partial curve, poor fit]
Cc1ccccc1Nc1c(-c2cccnc2)nc2ccc(Cl)cn12	inconclusive: 2.82 µM [inhibitor, partial curve, poor fit]
CCN(CC)CCN(C(=O)c1cc2ccccc2cc1OC)c1nc2ccc(F)cc2s1	active: 5.62 µM
COc1cc(OC)c(N(C)S(=O)(=O)c2cccc(C(=O)OCC(=O)c3c[nH]c4ccccc34)c2)cc1Cl	inconclusive: 11.6 µM [inhibitor, partial curve, poor fit]
COc1ccc(NC(=S)NC(NC(=O)c2ccc(Cl)cc2Cl)C(Cl)(Cl)Cl)c([N+](=O)[O-])c1 (configuration not stated)	inconclusive: 0.164 µM [inhibitor, full curve, poor fit]
C/C(=N\NC(=O)c1ccc(Cl)c(Cl)c1)c1ccc(Br)s1	inconclusive: 3.98 µM [inhibitor, partial curve, poor fit]
O=C(Nc1ccccn1)c1ccc2c(c1)OCO2	inconclusive: 14.1 µM [inhibitor, single point]
CCCCCCn1c(N2CCCC2)nc2c1c(=O)n(C)c(=O)n2C	inconclusive: 14.1 µM [inhibitor, single point]
CC(=O)OC[C@H]1O[C@H](CCON=C(C)CCN2CCCCc3nc(C)c(C)cc32)C=C[C@H]1OC(C)=O	inactive
CCOC(=O)c1c(CN2CCOCC2)n(C)c2cc(Br)c(O)c(CN(C)C)c12	inconclusive: 29.1 µM [inhibitor, single point]
CC(C)(C)C(=O)Cn1ncc(N2CCCC2)c(Br)c1=O	inconclusive: 0.282 µM [activator, full curve, poor fit]
O=C(Nc1ccc2nc(-c3ccc(Br)o3)[nH]c2c1)c1cccs1	inconclusive: 22.4 µM [inhibitor, partial curve, poor fit]

A section of the results above:
SMILES	Potency
CCN1CCN(c2ccc(S(=O)(=O)N3CCCCC3)cc2NC(=O)/C=C/c2ccc([N+](=O)[O-])cc2)CC1	inconclusive: 31.6 µM [inhibitor, single point]
Cc1cc2ccccc2n1CCNC(=O)c1ccc(Br)cc1	inactive
CN(c1ccc(C(=O)Nc2cccc(O)c2)cc1)S(=O)(=O)c1ccccc1	inconclusive: 17.8 µM [activator, partial curve, poor fit]
Cc1nnc(SCC(=O)NC(=O)Nc2ccc3c(c2)OCCO3)s1	inactive
COCCNC(=S)NC1CC2CCCC(C1)N2Cc1cccs1 (configuration not stated)	inconclusive: 25.9 µM [inhibitor, partial curve, poor fit]

(more compounds)

SMILES	Potency
OC1(c2ccc(Cl)cc2)CCN(Cc2nc(-c3cnccn3)no2)CC1	inconclusive: 35.5 µM [inhibitor, single point]
CCCCN(CCCNC(=O)c1cc(Nc2ccc(OC)c(OC)c2)nc2ccccc12)c1ccccc1	inactive
O=C(Cn1nnc2ccccc21)OCC(=O)c1ccccc1	inactive
COc1ccc2c(c1)O[C@H](c1ccc3c(c1)OCO3)[C@@H](OC(=O)Nc1cc(OC)c(OC)c(OC)c1)C2=O	inconclusive: 0.266 µM [activator, partial curve, poor fit]
Cc1ccc(/C([O-])=C(/C(=S)NCc2ccc3c(c2)OCO3)[n+]2ccc(N(C)C)cc2)c(C)c1	inactive
COc1cc(/C=C2/C(=O)NN(c3ccc(Cl)cc3)C2=O)ccc1OC(=O)c1ccco1	inconclusive: 16.4 µM [activator, partial curve, poor fit]
Oc1ccc(C=NNC(=S)Nc2ccc(F)cc2)c(O)c1	inconclusive: 14.1 µM [inhibitor, partial curve, poor fit]
C=CCn1c(SCC(=O)N2CCOCC2)nc2sc3c(c2c1=O)CCCC3	inconclusive: 22.4 µM [inhibitor, single point]
COc1cc2c(cc1OC)CN(C(=O)CCOc1ccccc1C)CC2	inconclusive: 11.2 µM [inhibitor, partial curve, poor fit]
COc1ccc([C@H]2CC(=O)c3c(O)cc(O)cc3O2)cc1O	inconclusive: 12.6 µM [activator, single point]
CC(C)Cn1c(SCC(=O)NCc2ccco2)nnc1-c1ccncc1	inactive
O=S(=O)(Cc1cc(-c2ccccc2Cl)no1)c1ccccc1	inconclusive: 2.82 µM [activator, full curve, poor fit]
CCN(CC)S(=O)(=O)c1ccc(C(=O)Nc2cc3oc4ccccc4c3cc2OC)cc1	inactive
O=S(=O)(c1cccc2ccccc12)N1CCN(c2ccc(Cl)c(Cl)c2)CC1	inconclusive: 35.5 µM [inhibitor, single point]
COc1ccc(Cl)cc1C(=O)NNC(=O)C1COc2ccccc2O1 (configuration not stated)	inconclusive: 4.47 µM [inhibitor, partial curve, poor fit]
CCc1nnc(NC(=O)COc2ccc3c(c2)OCO3)s1	inactive
O=C(NCc1cccs1)C1CCCN(S(=O)(=O)c2cccs2)C1 (configuration not stated)	inactive
CCN1CCN(C(=O)C2CCN(Cc3cc(Cl)ccc3O)CC2)CC1	inconclusive: 16.4 µM [inhibitor, single point]
CCOc1ccc(/C=C/C2=Cc3c(sc(NC(=O)CSc4n[nH]c(N)n4)c3C#N)C(C)(C)C2)cc1	inconclusive: 13 µM [inhibitor, partial curve, poor fit]
O=C(Cn1cc(S(=O)(=O)c2ccccc2)c(=O)c2cc(Cl)ccc21)Nc1ccc2c(c1)OCO2	inactive
COc1cccc(NC(=S)NN=C2CCC(C(C)(C)C)CC2)c1 (configuration not stated)	inconclusive: 3.55 µM [inhibitor, single point]
